Data as given in doi:10.1101/2020.05.28.122184.
No constants are given. Whether binding was seen depends on the method and setting. Binding seen in cells or lysates may run through a third protein. Some results given as binding are weak or reduced against the parent protein; the word gives no strength. For some assays here: Tags and fused reporters may be left off the sequences shown.

Sequences of proteins named here, by UniProt entry; tags and fusion partners are left off. A change or cut given only in a name is not applied to a line headed by its entry. Residues count along the entry.
UniProt P48431, whole entry: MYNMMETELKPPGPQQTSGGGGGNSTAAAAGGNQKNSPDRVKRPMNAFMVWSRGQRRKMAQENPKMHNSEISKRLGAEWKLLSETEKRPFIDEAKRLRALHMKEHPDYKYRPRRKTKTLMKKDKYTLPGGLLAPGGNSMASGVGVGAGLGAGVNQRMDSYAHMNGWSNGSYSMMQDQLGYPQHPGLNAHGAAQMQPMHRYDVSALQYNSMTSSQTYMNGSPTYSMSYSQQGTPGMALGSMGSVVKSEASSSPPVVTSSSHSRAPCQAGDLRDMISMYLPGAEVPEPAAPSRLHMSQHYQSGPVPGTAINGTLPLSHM
UniProt Q01860, whole entry: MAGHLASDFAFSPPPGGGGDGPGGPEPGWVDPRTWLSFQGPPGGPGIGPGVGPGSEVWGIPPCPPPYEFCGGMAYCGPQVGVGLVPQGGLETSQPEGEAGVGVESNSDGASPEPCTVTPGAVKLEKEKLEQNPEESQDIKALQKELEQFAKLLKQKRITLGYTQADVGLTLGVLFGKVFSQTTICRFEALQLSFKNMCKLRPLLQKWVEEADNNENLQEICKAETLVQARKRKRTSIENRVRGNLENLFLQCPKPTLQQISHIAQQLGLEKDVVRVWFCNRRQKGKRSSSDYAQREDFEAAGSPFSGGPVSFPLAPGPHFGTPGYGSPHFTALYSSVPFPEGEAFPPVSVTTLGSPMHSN
UniProt Q8NE71, whole entry: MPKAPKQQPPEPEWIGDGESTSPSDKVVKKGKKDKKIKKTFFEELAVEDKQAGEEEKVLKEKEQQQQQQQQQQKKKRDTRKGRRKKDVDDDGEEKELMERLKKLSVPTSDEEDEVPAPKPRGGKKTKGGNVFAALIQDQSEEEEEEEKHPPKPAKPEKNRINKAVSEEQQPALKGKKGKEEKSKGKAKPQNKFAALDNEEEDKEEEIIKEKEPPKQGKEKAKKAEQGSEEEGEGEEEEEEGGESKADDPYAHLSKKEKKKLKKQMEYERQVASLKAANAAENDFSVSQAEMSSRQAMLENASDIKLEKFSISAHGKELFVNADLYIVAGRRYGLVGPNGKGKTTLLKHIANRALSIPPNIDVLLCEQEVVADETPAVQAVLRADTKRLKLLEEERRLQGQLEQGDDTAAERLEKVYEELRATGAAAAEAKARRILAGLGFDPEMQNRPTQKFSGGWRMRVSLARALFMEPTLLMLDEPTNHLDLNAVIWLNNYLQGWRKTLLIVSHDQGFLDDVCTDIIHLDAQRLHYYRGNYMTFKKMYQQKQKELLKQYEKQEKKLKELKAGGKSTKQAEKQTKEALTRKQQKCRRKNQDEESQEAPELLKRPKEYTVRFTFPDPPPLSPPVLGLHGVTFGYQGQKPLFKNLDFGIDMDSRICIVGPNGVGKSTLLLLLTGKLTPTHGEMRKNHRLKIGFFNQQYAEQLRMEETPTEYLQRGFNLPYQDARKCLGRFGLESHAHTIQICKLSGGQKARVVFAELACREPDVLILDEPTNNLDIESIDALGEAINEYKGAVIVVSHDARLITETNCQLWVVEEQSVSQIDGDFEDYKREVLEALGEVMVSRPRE
UniProt Q8NE71, 303-845, stated change not applied: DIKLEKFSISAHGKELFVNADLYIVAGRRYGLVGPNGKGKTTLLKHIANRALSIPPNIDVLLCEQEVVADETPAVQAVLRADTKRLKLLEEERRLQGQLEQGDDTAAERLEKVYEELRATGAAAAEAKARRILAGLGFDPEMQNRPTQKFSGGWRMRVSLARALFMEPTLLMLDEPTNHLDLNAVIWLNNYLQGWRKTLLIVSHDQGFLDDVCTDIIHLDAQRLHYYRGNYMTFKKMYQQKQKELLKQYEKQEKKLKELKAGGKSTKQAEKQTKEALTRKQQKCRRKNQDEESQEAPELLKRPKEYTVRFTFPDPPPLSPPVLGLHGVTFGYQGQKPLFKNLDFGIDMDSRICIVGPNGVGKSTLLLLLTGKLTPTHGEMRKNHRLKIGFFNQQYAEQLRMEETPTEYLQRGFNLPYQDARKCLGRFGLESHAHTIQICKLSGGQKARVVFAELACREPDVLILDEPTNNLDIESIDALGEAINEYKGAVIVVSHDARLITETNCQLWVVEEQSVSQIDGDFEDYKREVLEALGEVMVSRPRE
UniProt P48432, whole entry: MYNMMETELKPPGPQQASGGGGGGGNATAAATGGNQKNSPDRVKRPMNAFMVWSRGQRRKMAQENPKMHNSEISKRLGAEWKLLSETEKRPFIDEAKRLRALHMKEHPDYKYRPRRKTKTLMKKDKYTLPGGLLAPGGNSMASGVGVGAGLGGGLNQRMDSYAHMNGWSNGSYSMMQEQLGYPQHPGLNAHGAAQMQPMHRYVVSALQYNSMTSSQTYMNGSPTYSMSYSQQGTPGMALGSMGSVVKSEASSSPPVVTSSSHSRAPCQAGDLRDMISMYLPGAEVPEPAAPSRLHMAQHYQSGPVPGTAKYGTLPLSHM
UniProt Q01831, whole entry: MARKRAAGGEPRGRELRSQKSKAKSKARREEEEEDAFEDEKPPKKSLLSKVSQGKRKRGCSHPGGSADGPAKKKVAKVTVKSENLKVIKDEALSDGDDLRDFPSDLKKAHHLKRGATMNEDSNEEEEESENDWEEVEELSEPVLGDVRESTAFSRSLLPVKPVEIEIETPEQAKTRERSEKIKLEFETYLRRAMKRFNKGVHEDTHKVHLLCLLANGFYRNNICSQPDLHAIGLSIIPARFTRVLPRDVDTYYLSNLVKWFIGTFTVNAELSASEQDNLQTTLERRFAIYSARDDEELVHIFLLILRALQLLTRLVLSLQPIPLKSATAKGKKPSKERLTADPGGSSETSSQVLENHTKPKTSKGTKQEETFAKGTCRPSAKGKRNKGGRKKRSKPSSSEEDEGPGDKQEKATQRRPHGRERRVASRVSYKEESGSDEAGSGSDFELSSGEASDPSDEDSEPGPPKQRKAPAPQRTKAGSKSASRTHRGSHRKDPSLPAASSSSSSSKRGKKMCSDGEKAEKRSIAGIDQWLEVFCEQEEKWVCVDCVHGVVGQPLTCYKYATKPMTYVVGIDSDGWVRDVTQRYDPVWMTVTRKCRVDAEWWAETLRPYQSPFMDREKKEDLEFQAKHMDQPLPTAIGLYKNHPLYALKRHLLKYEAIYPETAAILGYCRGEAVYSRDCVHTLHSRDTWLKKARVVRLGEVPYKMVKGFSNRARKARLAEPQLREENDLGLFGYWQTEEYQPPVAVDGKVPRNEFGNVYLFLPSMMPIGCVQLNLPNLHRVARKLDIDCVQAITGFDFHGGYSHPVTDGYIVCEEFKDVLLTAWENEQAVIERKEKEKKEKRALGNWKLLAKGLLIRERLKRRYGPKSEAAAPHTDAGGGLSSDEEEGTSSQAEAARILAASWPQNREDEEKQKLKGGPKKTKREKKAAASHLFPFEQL
UniProt Q6P542, 2-837: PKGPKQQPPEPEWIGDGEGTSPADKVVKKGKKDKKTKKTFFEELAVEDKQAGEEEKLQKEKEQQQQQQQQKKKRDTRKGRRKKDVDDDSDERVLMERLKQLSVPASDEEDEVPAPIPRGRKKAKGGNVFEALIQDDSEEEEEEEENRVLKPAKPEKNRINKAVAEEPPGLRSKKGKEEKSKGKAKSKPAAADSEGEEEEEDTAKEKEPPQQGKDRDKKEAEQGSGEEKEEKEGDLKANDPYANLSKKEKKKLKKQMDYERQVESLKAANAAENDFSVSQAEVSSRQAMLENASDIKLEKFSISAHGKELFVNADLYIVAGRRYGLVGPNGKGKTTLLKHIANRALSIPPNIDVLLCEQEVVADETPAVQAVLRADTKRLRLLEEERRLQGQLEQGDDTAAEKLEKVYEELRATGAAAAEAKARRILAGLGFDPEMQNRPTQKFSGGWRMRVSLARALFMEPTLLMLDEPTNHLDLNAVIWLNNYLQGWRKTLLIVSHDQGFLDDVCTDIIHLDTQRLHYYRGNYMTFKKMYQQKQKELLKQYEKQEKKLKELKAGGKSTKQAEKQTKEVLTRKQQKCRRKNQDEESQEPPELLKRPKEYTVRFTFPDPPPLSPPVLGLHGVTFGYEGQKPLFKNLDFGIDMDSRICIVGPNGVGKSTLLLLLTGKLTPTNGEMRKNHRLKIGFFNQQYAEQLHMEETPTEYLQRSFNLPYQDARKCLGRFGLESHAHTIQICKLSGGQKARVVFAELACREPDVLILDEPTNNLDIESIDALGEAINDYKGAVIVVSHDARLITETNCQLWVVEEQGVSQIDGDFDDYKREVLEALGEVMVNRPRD

T1: GST-GCN20 (1-197) (S. cerevisiae) (UniProt P43535)
T1 sequence: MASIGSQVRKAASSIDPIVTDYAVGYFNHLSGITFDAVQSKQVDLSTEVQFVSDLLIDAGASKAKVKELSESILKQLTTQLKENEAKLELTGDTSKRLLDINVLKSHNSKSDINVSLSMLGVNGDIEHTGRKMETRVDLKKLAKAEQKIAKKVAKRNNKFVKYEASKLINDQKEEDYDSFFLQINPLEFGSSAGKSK

T2: GST-SREBP1a (1-50) (human) (UniProt P36956)
T2 sequence: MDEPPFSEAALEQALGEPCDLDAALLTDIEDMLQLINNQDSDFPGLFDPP

B1: DKC1 (protein, UniProt O60832 1-514)
chain: MADAEVIILPKKHKKKKERKSLPEEDVAEIQHAEEFLIKPESKVAKLDTSQWPLLLKNFDKLNVRTTHYTPLACGSNPLKREIGDYIRTGFINLDKPSNPSSHEVVAWIRRILRVEKTGHSGTLDPKVTGCLIVCIERATRLVKSQQSAGKEYVGIVRLHNAIEGGTQLSRALETLTGALFQRPPLIAAVKRQLRVRTIYESKMIEYDPERRLGIFWVSCEAGTYIRTLCVHLGLLLGVGGQMQELRRVRSGVMSEKDHMVTMHDVLDAQWLYDNHKDESYLRRVVYPLEKLLTSHKRLVMKDSAVNAICYGAKIMLPGVLRYEDGIEVNQEIVVITTKGEAICMAIALMTTAVISTCDHGIVAKIKRVIMERDTYPRKWGLGPKASQKKLMIKQGLLDKHGKPTDSTPATWKQEYVDYSESAKKEVVAEVVKAPQVVAEAAKTAKRKRESESESDETPPAAPQLIKKEKKKSKKDKKAKAGLESGAEPGDGDSDTTKKKKKKKKAKEVELVSE

Columns and labels:
FLAG-tagged SOX2 (human) = FLAG-tagged SOX2 (human) (UniProt P48431); experiment: co-IP
[1] = biological target: HA-tagged SOX2 (SOX2-HA) (human) (UniProt P48431); experiment: co-IP
FLAG-tagged OCT4 (human) = FLAG-tagged OCT4 (human) (UniProt Q01860); experiment: co-IP
[2] = biological target: T1, GST-GCN20 (1-197) (S. cerevisiae); experiment: pull-down
[3] = biological target: T2, GST-SREBP1a (1-50) (human); experiment: pull-down
[4] = biological target: GST-ABCF1 (1-302) (human) (UniProt Q8NE71); experiment: pull-down
[5] = biological target: SOX2 (endogenous, mouse ES cells) (mouse (endogenous in D3 ES cells)) (UniProt P48432); experiment: co-IP

| Molecule | binding [1] | binding [2] | binding [3] | binding [4] | also measured |
| --- | --- | --- | --- | --- | --- |
| V5-tagged full-length human ABCF1 (from UniProt Q8NE71 1-845) | binds | – | – | – | binding (FLAG-tagged SOX2 (human)): binds; binding (FLAG-tagged OCT4 (human)): no binding |
| XPC (from UniProt Q01831 1-940) | – | no binding | no binding | binds | – |
| V5-ABCF1 (endogenously V5-tagged mouse ABCF1, knock-in) (from UniProt Q6P542 2-837) | – | – | – | – | binding [5]: binds |
| V5-tagged IDR-truncated human ABCF1 (Δ302) (from UniProt Q8NE71 303-845) (domain or fragment) | no binding | – | – | – | – |
| B1 | – | no binding | no binding | binds | – |
